These are yes or no findings as the source states them, for the method shown. Binding seen in cells or lysates may run through a third protein. These calls come from enrichment with a bait or labelling near it, and not all partners need be listed. For some assays here: No binding means not detected with the bait. Where a sequence is shown, tags or fusion partners need not be part of it.
T1: GST-Arl8Δ17 Q75L (GTP-locked form of Drosophila Arl8) (Drosophila melanogaster) (UniProt Q9VHV5)
T1 sequence: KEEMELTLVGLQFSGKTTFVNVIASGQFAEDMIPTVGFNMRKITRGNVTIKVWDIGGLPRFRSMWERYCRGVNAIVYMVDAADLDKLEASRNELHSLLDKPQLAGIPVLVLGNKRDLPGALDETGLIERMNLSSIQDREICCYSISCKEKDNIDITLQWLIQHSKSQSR

T2: GST-Arl8Δ17 T34N (GDP-locked form of Drosophila Arl8) (Drosophila melanogaster) (UniProt Q9VHV5)
T2 sequence: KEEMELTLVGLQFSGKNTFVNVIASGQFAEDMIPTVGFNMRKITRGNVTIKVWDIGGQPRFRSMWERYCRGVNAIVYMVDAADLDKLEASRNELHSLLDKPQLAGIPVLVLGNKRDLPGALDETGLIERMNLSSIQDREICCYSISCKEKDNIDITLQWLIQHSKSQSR


What was measured:
[1] = target: T1, GST-Arl8Δ17 Q75L (GTP-locked form of Drosophila Arl8) (Drosophila melanogaster); test: affinity purification with mass spectrometry; GST-Arl8Δ17 (Q75L or T34N) on Glutathione-Sepharose beads; clarified S2 cell cytosol prepared with 1% CHAPS (20 mM Tris-HCl pH 8, 110 mM KCl, 5 mM MgCl2, 5 mM β-mercaptoethanol), with GDP or GTPγS, 4°C; eluted with high salt and the opposite nucleotide; only the target purified
[2] = target: T2, GST-Arl8Δ17 T34N (GDP-locked form of Drosophila Arl8) (Drosophila melanogaster); test: as above
[3] = target: T1, GST-Arl8Δ17 Q75L (GTP-locked form of Drosophila Arl8) (Drosophila melanogaster); test: affinity purification with mass spectrometry; GST-Arl8Δ17 (Q75L or T34N) on Glutathione-Sepharose beads; clarified S2 cell cytosol prepared without detergent (20 mM Tris-HCl pH 8, 110 mM KCl, 5 mM MgCl2, 5 mM β-mercaptoethanol), with GDP or GTPγS, 4°C; eluted with high salt and the opposite nucleotide; only the target purified
[4] = target: T2, GST-Arl8Δ17 T34N (GDP-locked form of Drosophila Arl8) (Drosophila melanogaster); test: as above
[5] = target: T1, GST-Arl8Δ17 Q75L (GTP-locked form of Drosophila Arl8) (Drosophila melanogaster); test: as above; remark: listed apart in the source
[6] = target: T2, GST-Arl8Δ17 T34N (GDP-locked form of Drosophila Arl8) (Drosophila melanogaster); test: as above; remark: listed apart in the source

binding [1] | binding [2] | binding [3] | binding [4] | binding [5] | binding [6] | Molecule
binds | no binding | binds | no binding |  |  | Rod
no binding | no binding | no binding | no binding |  |  | CG6613, the Drosophila ortholog of PLEKHM1
binds | no binding |  |  | binds | no binding | Zw10 (protein, UniProt Q9W4X9 1-721) MEEEAPRFNVLEEAFNGNGNGCANVEATQSAILKVLTRVNRFQMRVRKHIEDNYTEFLPNNTSPDIFLEESGSLNREIHDMLENLGSEGLDALDEANVKMAGNGRQLREILLGLGVSEHVLRIDELFQCVEEAKATKDYLVLLDLVGRLRAFIYGDDSVDGDAQVATPEVRRIFKALECYETIKVKYHVQAYMLQQSLQERFDRLVQLQCKSFPTSRCVTLQVSRDQTQLQDIVQALFQEPYNPARLCEFLLDNCIEPVIMRPVMADYSEEADGGTYVRLSLSYATKEPSSAHVRPNYKQVLENLRLLLHTLAGINCSVSRDQHVFGIIGDHVKDKMLKLLVDECLIPAVPESTEEYQTSTLCEDVAQLEQLLVDSFIINPEQDRALGQFVEKYETYYRNRMYRRVLETAREIIQRDLQDMVLVAPNNHSAEVANDPFLFPRCMISKSAQDFVKLMDRILRQPTDKLGDQEADPIAGVISIMLHTYINEVPKVHRKLLESIPQQAVLFHNNCMFFTHWVAQHANKGIESLAALAKTLQATGQQHFRVQVDYQSSILMGIMQEFEFESTHTLGSGPLKLVRQCLRQLELLKNVWANVLPETVYNATFCELINTFVAELIRRVFTLRDISAQMACELSDLIDVVLQRAPTLFREPNEVVQVLSWLKLQQLKAMLNASLMEITELWGDGVGPLTASYKSDEIKHLIRALFQDTDWRAKAITQIV
binds | no binding |  |  | binds | no binding | Zwilch (protein, UniProt Q9VA00 1-641) MSASANLANVYAELMRRCGESYTITYGAPPTYLVSMVGAAEAGKKIVLVFKEDRNGAVARLRTTPTRAAPKKEGSADLDLTGSPLKDDCLVDAIADLSIDLQLDHSNPWKLEEEYQRGIPVDKARSIVCSEFLQLAEGLGSVWFLCDGSDLGQTQLLQYEFNPTHFSRGILSYQGVRPAYLVTSQALVRHHGKTPDETLIENSYQVNPHMRLRCSWTSSAALPLLVNLNDCDVALNHTFRVGDCGPLTQDFMNQLRILVYIREDIVSYHTDVKQGVSRDPTYRCGSGIDMDELRESINQTMTDVSGLIGRYSISNAEFDIEDVVQRAKVRQLTDLTDKLWELLKCCHSYKDLKIAFSMLFQCAARCNIVNTPTNKNRLAKIITELANRRLAMPCLSGAEPLELLLEIGLEKLYKDYEFIYTESKMCSTNLLKDDSSGASMDDGSPQNLPQLRKSLHNAVRGDPTPGAGMRKTLLHHHGAVNSRSTKYAGSDDDAGFKNSHFDEHESTERISKLFQIHCTLEHLLMMHIHLNLANVYNDVCSELLKKPPKLVESIDDQLSDVMDIRLSAHYVRDHLDGKDPYSRHITMRSHNKFRELKTTFYFNSENICPPNLAQCFQCDDKEMVKERTYHSWIYHKIRSLK
binds | no binding |  |  | binds | no binding | CG11448, the Drosophila ortholog of RILP (protein, UniProt O76878 1-443) MPGFHLNEMGEMVLDAIDDIGVVDVYDLASDIGKEYERIMDRFGTDAVSGLMPKIINTLELLEALATKNERENATIQELRDKVAQLESEKLEKAEFRRRFDKELELIEEQWRSETNELVDLVSSLQDENKRLVKQTQDLQSSSAQSSGLGASLTESIISMTNHELHSALSDTQVLQRLKEQIYKQRDELKHRERELQDKYSELEHLNIQAERLKASERDTRRRHKLMQAQVKTLCEERADFLAQLQDQSREINQLRKRLGLAEKENEDLVASYDDGQNDPNRPRYTTRELKELISERDELLTTIDTLNEQLAELKPPSQAKGKRQRHFSSSDDSDEDDDGHVADNDDDDDEEEAAAEANELEPPAAGETPPGHDAPVQGPLPYEPDDAPWKKSSESGIRKFFRKLFSDPSDGSNTFPKRSLATLSKMALSATPGSVSASAAAK

Reference: publication PMC6176938
